Assay results as given in PubChem BioAssay AID504467 (National Center for Advancing Translational Sciences (NCATS), 2011).
Among all 330,000 compounds or so, about 7,700 (2.3%) were called active. Inconclusive means that the source gave no clear call. Such entries were picked first, then a sample of the others. The call rests on the fitted dose curve; in most records, active means well fitted inhibition curve with a large enough effect; inconclusive means small, poorly fitted or top-dose-only effect, or effect the other way; inactive means flat fitted curve, though single readings scatter. A potency beside an inconclusive call is a rough fit, not a confirmed value.
On the % scale 0 is the no-effect control and ±100 the full control effect; potency means the concentration at half of the fitted maximal effect.

Test: qHTS screen for small molecules that inhibit ELG1-dependent DNA repair in human embryonic kidney (HEK293T) cells expressing luciferase-tagged ELG1; further: nearly all actives have a fitted effect of over 55% in size
Conditions: HEK293T ELG1-luciferase reporter, luminescence, 16 h, DNA damage induced by 5-fluorouridine; activity change, negative = inhibition: at 46.1 µM (top of the series)
Procedure, shortened: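 Quantitative HTS, concentration-response format. 2,000 cells/well co-treated with 5-fluorouridine and compound, 16 hr in 5% CO2 at 37 °C; ONE-Glo luminescence read after 30 min.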
In the case of `Cc1nnc(NC(=O)C2CCCO2)s1` (configuration not stated), the Potency is reported as inconclusive: 18.4 µM [activator, partial curve, poor fit]. For `Cc1cc(C)c(C#N)c(SCC(=O)NC2CC2)n1`, the Potency was inconclusive: 25.9 µM [activator, single point]. For `COc1ccccc1OCC(=O)Nc1nc(C)c(C)s1`, the Potency was inconclusive: 10.3 µM [activator, partial curve]. With `Cc1ccccc1C(=O)N1CCc2cc(-c3nc(NC(=O)Cc4ccc5c(c4)OCO5)sc3C)ccc21` the Potency was inconclusive: 2.31 µM [inhibitor, partial curve, poor fit]. For `O=C(c1ccc(F)cc1)C1CCN(C(=O)c2ccc(F)cc2)CC1`, the Potency was inconclusive: 29.1 µM [inhibitor, partial curve, poor fit]. With `O=C1CCc2cc(NS(=O)(=O)c3ccc(Cl)cc3)cc3c2N1CC3` the Potency was inconclusive: 35.5 µM [activator, single point]. For `CCOC(=O)C1CCN(S(=O)(=O)c2ccc(-c3nc4ccccc4s3)s2)CC1`, the Potency was inconclusive: 16.4 µM [activator, partial curve]. In the case of `CCOC(=O)C1CCCN(Cc2nc(N)nc(Nc3ccc(OC)cc3)n2)C1` (configuration not stated), the Potency is reported as inconclusive: 29.1 µM [inhibitor, single point]. In the case of `O=C(O)c1ccc(/C=N/Nc2ccc(C(F)(F)F)cn2)cc1`, the Potency is reported as inconclusive: 2.31 µM [activator, full curve]. In the case of `O=C(CSc1cn(CCNC(=O)c2ccc3ccccc3c2)c2ccccc12)NCc1ccco1`, the Potency is reported as active: 23.1 µM. For `CC(Nc1ccc2c(c1)OCCO2)C(=O)N1CCc2ccccc21` (configuration not stated), the Potency was inconclusive: 16.4 µM [activator, single point]. In the case of `COc1cc(OC)cc(-c2nnc(SCC(=O)NCc3cccs3)o2)c1`, the Potency is reported as inconclusive: 20.6 µM [inhibitor, partial curve, poor fit]. For `COc1ccc(NS(=O)(=O)c2ccc(N3CCOCC3)c(NC(=O)c3ccc(OC)cc3)c2)cc1`, the Potency was inconclusive: 20.6 µM [inhibitor, partial curve]. For `Cc1cc2ccccc2n2c(SCC(=O)N3CCc4ccccc4C3)nnc12`, the Potency was inconclusive: 20.6 µM [inhibitor, partial curve]. In the case of `COC(=O)Cc1c(C)c2ccc(OCC(=O)N3CCCC(C)C3)c(C)c2oc1=O` (configuration not stated), the Potency is reported as inconclusive: 20.6 µM [inhibitor, partial curve, poor fit]. With `c1ccc(Cn2nnnc2C(c2cccnc2)N2CCN(C3CCCCC3)CC2)cc1` (configuration not stated) the Potency was active: 3.26 µM. In the case of `CNC(=O)Nc1ccc(Cn2cc(C(F)(F)F)ccc2=O)cc1`, the Potency is reported as inconclusive: 18.3 µM [inhibitor, single point]. For `Cc1cc(C)nc(Nc2n[nH]c(-c3ccccc3Br)n2)n1`, the Potency was inconclusive: 16.4 µM [activator, single point]. For `COc1ccc(OCCCC(=O)Nc2ccc3c(c2)OCCO3)cc1`, the Potency was inconclusive: 16.4 µM [inhibitor, single point]. For `COC(=O)c1ccc(N2CCCCC2)c(N)c1`, the Potency was inconclusive: 20.6 µM [activator, partial curve]. For `Fc1cc(Br)ccc1NC(=S)Nc1ccccc1`, the Potency was inconclusive: 29.1 µM [activator, single point]. With `COc1ccc(NC(=O)CSc2nnnn2C2CC3C=CC2C3)cc1` (configuration not stated) the Potency was inconclusive: 23.1 µM [activator, single point]. With `COc1ccccc1CCNC(=O)c1ccc(NC(=O)CC2SC(N3CCCCC3)=NC2=O)cc1` (configuration not stated) the Potency was inconclusive: 18.3 µM [inhibitor, single point]. With `CC(C)c1ccc(NC(=O)N2CCc3ccccc3C2)cc1` the Potency was inconclusive: 4.11 µM [activator, single point]. With `CN(C)S(=O)(=O)c1ccc(Oc2ccc(S(=O)(=O)N(C)C)cc2)cc1` the Potency was inconclusive: 6.51 µM [inhibitor, partial curve]. In the case of `Cc1ccc(NS(=O)(=O)c2ccc(NS(=O)(=O)c3cccs3)cc2)cc1`, the “activity change, negative = inhibition” value is reported as inactive: 3.07%. For `Cc1ccc2nc(NC(=O)COC(=O)c3ccncc3)sc2c1`, the Potency was inconclusive: 16.4 µM [activator, partial curve]. With `O=c1cc(-c2ccsc2)oc2cc(-c3ccc4c(c3)OCO4)ccc12` the Potency was inconclusive: 18.3 µM [activator, partial curve, poor fit]. With `COc1ccc(F)cc1S(=O)(=O)Nc1ccncc1` the “activity change, negative = inhibition” value was inactive: -3.38%. With `COc1ccc(C(=O)Nc2ccccc2C(=O)Nc2ccncc2)cc1` the Potency was inconclusive: 7.3 µM [activator, partial curve]. In the case of `Cc1ccc(S(=O)(=O)N2CCC(=O)N(C(COCc3cccc(Cl)c3)Cc3ccccc3)CC2)cc1` (configuration not stated), the Potency is reported as inconclusive: 25.9 µM [inhibitor, single point]. In the case of `Cc1ccc(/C=C/C(=O)Nc2sc3c(c2C#N)CCCC3)o1`, the Potency is reported as inconclusive: 23.1 µM [activator, single point]. For `CN(C1=C(N2CCOCC2)C(=O)c2ccccc2C1=O)c1ccccc1`, the “activity change, negative = inhibition” value was inactive: -13.6%. With `Cc1ccc2[nH]c(=O)c3cc(C(=O)N(C)Cc4ccco4)sc3c2c1` the Potency was inconclusive: 29.1 µM [inhibitor, single point]. With `CC1CCCN(S(=O)(=O)c2ccc(S(=O)(=O)N3CCCC3)cc2)C1` (configuration not stated) the “activity change, negative = inhibition” value was inactive: 3.01%. With `CC(C)(C)c1ccc(-c2cc(C(=O)NNC(=O)Nc3ccccc3)c3ccccc3n2)cc1` the Potency was inconclusive: 3.26 µM [activator, partial curve]. With `O=C(Cc1ccc(F)cc1)Nc1ccc(S(=O)(=O)N2CCCCC2)cc1` the Potency was inconclusive: 23.1 µM [inhibitor, single point]. For `CCOC(=O)N1CCC(NCCNC(=O)c2ccc(F)c(F)c2)CC1`, the “activity change, negative = inhibition” value was inactive: 10.3%. For `CC1(C)CC(=O)c2sc(NS(=O)(=O)c3cc(Cl)ccc3Cl)nc2C1`, the “activity change, negative = inhibition” value was inactive: -4.18%. With `Cc1ccc(C2Nc3ccccc3NC3=C2C(=O)CC(C)(C)C3)c(O)c1` (configuration not stated) the “activity change, negative = inhibition” value was inactive: 2.7%. For `O=C(NNc1cc(Cl)cc(Cl)c1)c1c(F)cccc1Cl`, the Potency was inconclusive: 23.1 µM [inhibitor, single point]. In the case of `O=C(NCc1cccc(Br)c1)C1CC(c2ccccc2C(F)(F)F)=NO1` (configuration not stated), the “activity change, negative = inhibition” value is reported as inactive: -0.775%. In the case of `CC(=O)c1c(C)[nH]c(C(=O)OCC(=O)Nc2ccc(C)cc2[N+](=O)[O-])c1C`, the Potency is reported as inconclusive: 10.3 µM [inhibitor, partial curve]. With `COc1ccc(C)cc1Nc1nc(C)nc2sc(C)cc12` the Potency was inconclusive: 18.3 µM [inhibitor, partial curve]. In the case of `COc1ccc(-n2nc([N+](=O)[O-])c(=NCCCN3CCCC3=O)n2O)cc1`, the Potency is reported as inconclusive: 5.8 µM [activator, single point]. In the case of `O=C(CCCn1c(=O)oc2ccccc21)N1CCN(c2ccccn2)CC1`, the Potency is reported as inconclusive: 16.4 µM [activator, single point]. In the case of `CC1=CC(C)(C)N(C(=O)CSc2ncn[nH]2)c2ccccc21`, the Potency is reported as inconclusive: 23.1 µM [inhibitor, partial curve, poor fit]. In the case of `COc1ccc(-n2cc(-c3ccc(OC)c(OC)c3)[nH]c2=S)cc1`, the “activity change, negative = inhibition” value is reported as inactive: 20%. For `COc1ccc2oc(C(=O)OCC(=O)N3CCCCC3)c(C)c2c1`, the Potency was inconclusive: 4.61 µM [activator, single point]. With `Cc1nn(Cc2ccccc2Cl)c(Cl)c1/C=C/C(=O)OCC(=O)NC(N)=O` the “activity change, negative = inhibition” value was inactive: -19.5%. With `COCCCN1C(=O)c2ccc(C(=O)N3CCN(c4ccc(OC)cc4)CC3)cc2C1=O` the Potency was inconclusive: 23.1 µM [activator, partial curve, poor fit]. With `O=c1[nH]c(CSc2nc3ccccc3o2)nc2c1cnn2-c1ccccc1` the “activity change, negative = inhibition” value was inactive: -0.368%. For `CS(=O)(=O)N(CC(=O)N/N=C/c1ccccc1C(=O)O)c1cccc(Cl)c1Cl`, the “activity change, negative = inhibition” value was inactive: 5.53%. In the case of `CN(C)c1cnn(-c2ccccc2)c(=O)c1Cl`, the Potency is reported as inconclusive: 20.6 µM [activator, single point]. In the case of `COc1ccc(CNS(=O)(=O)c2cc(-c3cc(C)no3)ccc2C)cc1OC`, the Potency is reported as active: 23.1 µM. In the case of `CN(C)CCNCCCOc1ccccc1-c1ccccc1`, the “activity change, negative = inhibition” value is reported as inactive: -2.74%. For `O=C(Cc1csc(-c2ccccc2)n1)NCc1ccccc1F`, the Potency was inconclusive: 25.9 µM [activator, partial curve, poor fit]. For `CCc1nnc(NC(=O)CSc2nc3c(cc2C#N)CCCC3)s1`, the Potency was inconclusive: 2.06 µM [activator, partial curve, poor fit]. With `CCOc1ccc(NC(=O)c2ccc(NC(=O)CSc3nc4ccccc4c(=O)[nH]3)cc2)cc1` the Potency was inconclusive: 14.6 µM [activator, partial curve]. For `CCOC(=O)c1c(C)nc2c(c1-c1cc(OC)ccc1OC)C(=O)CC(C)(C)C2`, the Potency was inconclusive: 29.1 µM [activator, single point]. With `CO/N=C/c1ccc(N2CCN(C(=O)c3ccc(Cl)cc3Cl)CC2)c([N+](=O)[O-])c1` the “activity change, negative = inhibition” value was inactive: -24.7%. With `COC(=O)C1=C(C)NC2=C(C(=O)CC(C)(C)C2)C1c1cn(Cc2ccc(Br)cc2)nc1-c1ccccc1` (configuration not stated) the Potency was inconclusive: 29.1 µM [activator, single point]. With `CCCn1c(N)c(C(=O)CN(C)CC(=O)Nc2ccccc2CC)c(=O)[nH]c1=O` the Potency was inconclusive: 20.6 µM [inhibitor, single point]. With `CCOc1ccc(C(=O)Nc2ccccc2N2CCOCC2)cc1` the “activity change, negative = inhibition” value was inactive: 18.1%. For `O=C(Nc1ccncc1)Nc1ccc(F)cc1`, the Potency was inconclusive: 18.3 µM [activator, single point]. With `Cc1ccc(NC(=O)C2CCCN(c3ncccn3)C2)cc1F` (configuration not stated) the Potency was inconclusive: 8.2 µM [activator, partial curve]. With `COc1ccccc1CC(=O)NCCN1CCCCC1` the “activity change, negative = inhibition” value was inactive: -2.22%.
